# Data taken from paper doi:10.1101/2024.12.16.628806.
# The chains behind the UniProt entries cited, without tags or fusion partners.
# UniProt P49841: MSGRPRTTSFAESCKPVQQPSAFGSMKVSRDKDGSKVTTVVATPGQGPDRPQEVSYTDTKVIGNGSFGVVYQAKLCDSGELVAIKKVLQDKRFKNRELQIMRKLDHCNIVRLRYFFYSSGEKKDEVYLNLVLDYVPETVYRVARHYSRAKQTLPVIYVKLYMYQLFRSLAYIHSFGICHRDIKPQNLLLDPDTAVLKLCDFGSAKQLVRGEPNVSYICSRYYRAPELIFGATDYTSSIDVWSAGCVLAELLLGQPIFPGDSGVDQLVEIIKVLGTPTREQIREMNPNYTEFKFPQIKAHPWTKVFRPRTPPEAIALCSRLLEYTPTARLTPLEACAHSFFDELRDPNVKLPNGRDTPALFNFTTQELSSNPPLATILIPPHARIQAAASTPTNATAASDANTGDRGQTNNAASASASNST
# Results are given in words; binding and its absence hold for the method and conditions named. In cells and extracts the contact can be indirect. Some entries that bind do so weakly or less than the wild type. For part of these data: Tags and fused reporters may be left off the sequences shown.
# T1: eGFP-IQCG (eGFP-tagged human IQ Motif Containing G) (human) (UniProt Q9H095)
# T1 sequence: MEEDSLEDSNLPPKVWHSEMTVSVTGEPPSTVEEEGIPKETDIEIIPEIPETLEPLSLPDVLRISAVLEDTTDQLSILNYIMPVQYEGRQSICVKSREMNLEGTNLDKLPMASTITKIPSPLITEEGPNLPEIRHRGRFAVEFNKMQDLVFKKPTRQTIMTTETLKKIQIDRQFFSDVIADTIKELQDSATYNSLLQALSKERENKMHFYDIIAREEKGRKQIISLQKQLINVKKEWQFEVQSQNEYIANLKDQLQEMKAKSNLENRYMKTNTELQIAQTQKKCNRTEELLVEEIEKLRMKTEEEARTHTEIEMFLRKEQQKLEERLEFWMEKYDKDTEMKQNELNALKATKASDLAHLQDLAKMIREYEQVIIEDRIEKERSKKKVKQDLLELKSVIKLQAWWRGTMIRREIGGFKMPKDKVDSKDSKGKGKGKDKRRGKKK
# T2: eGFP-IQCG N2 region fragment (human) (UniProt Q9H095)
# T2 sequence: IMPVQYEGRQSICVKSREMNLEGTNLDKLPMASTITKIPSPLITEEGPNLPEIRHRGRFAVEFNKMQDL
# How the values were obtained:
# Assay in all cases: co-IP
# [1] = target: T1, eGFP-IQCG (eGFP-tagged human IQ Motif Containing G) (human)
# [2] = target: T2, eGFP-IQCG N2 region fragment (human)
# eGFP-GSK3β = eGFP-GSK3β (UniProt P49841)
binding [1],binding [2],binding (eGFP-GSK3β),Molecule
binds,binds,,glycogen synthase kinase-3β (GSK3β) (from UniProt P49841 1-420)
,,binds,"IQCG (detected with anti-IQCG antibody) (protein, UniProt Q9H095 1-443) MEEDSLEDSNLPPKVWHSEMTVSVTGEPPSTVEEEGIPKETDIEIIPEIPETLEPLSLPDVLRISAVLEDTTDQLSILNYIMPVQYEGRQSICVKSREMNLEGTNLDKLPMASTITKIPSPLITEEGPNLPEIRHRGRFAVEFNKMQDLVFKKPTRQTIMTTETLKKIQIDRQFFSDVIADTIKELQDSATYNSLLQALSKERENKMHFYDIIAREEKGRKQIISLQKQLINVKKEWQFEVQSQNEYIANLKDQLQEMKAKSNLENRYMKTNTELQIAQTQKKCNRTEELLVEEIEKLRMKTEEEARTHTEIEMFLRKEQQKLEERLEFWMEKYDKDTEMKQNELNALKATKASDLAHLQDLAKMIREYEQVIIEDRIEKERSKKKVKQDLLELKSVIKLQAWWRGTMIRREIGGFKMPKDKVDSKDSKGKGKGKDKRRGKKK"
